# Experimental data published in the supplement of paper PMC8104966.
# The other results are listed elsewhere or left out. Single values are uncertain here, since repeats match poorly.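 U2OS cells expressing ACE2 were combined with U2OS cells expressing full-length spike, and imaging quantified fusion as the fraction of nuclei displaying both cell types' fluorescent markers. Non-toxic compounds with a fusion z-score under -3, i.e., over three standard deviations below the plate's DMSO wells, are called inhibitory hits.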
# Test system: U2OS ACE2 x SARS-CoV-2 spike co-culture
# Experiment: cell-cell fusion (fraction fused) z-score vs plate DMSO control; higher = more fusion
# Conditions: 30 µM; 5 h; toxicity class: non-toxic, passed QC
row,Structure (SMILES),cell-cell fusion (z-score)
1,O=C(NC(=O)c1ccccc1Cl)Nc1ccc(OC(F)(F)F)cc1,inactive: 2.15
2,C[C@H](CCC(=O)NCCS(=O)(=O)[O][Na])C1CCC2C3C(C[C@H](O)C21C)C1(C)CC[C@@H](O)CC1C[C@H]3O (some centres not stated) [Sodium Taurocholate hydrate],inactive: 1.78
3,CCc1ccc(/C=C2/SC(=S)NC2=O)cc1 [listing 1 of 2 here],inactive: -0.128
4,CC(=O)NCCCS(=O)(=O)[O-].CC(=O)NCCCS(=O)(=O)[O-].[Ca+2] [Acamprosate calcium],inactive: 1.03
5,COc1cc(OC)c(-c2c(OC)cc(OC)cc2OC)c(OC)c1,inactive: 2.43
6,CC(C)(C)[C@]1(O)CCN2C[C@H]3c4ccccc4CCc4cccc(c43)[C@@H]2C1.Cl [(+)-Butaclamol hydrochloride],inactive: 2.18
7,Cc1cc(O)c2c(c1)C(=O)c1cc(O)cc(O)c1C2=O [Emodin],inactive: 2.72
8,CNCC(O)c1ccc(O)cc1 (racemic) [(±)-Synephrine],inactive: -1.49
9,CC(OC(=O)OC1CCCCC1)OC(=O)C1=C(CSc2nnnn2CCN(C)C)CS[C@@H]2[C@H](NC(=O)Cc3csc(N)n3)C(=O)N12.Cl.Cl (some centres not stated) [Cefotiam Hexetil Hydrochloride],inactive: 0.624
10,CCOC(=O)NNc1nncc2ccccc12.Cl,inactive: 0.796
11,CC1(C)CC2C1CCC1(C)OC1CCC2(C)O (configuration not stated),inactive: 1.56
12,"c1ccc(-c2ccccn2)nc1 [2,2'-Bipyridyl]",inactive: 3.7
13,NCCS(=O)(=O)O [Taurine],inactive: 2.78
14,C[N+](C)(C)CC(=O)[O-].Cl,inactive: 0.998
15,CC[C@H]1C(=O)OC[C@@H]1Cc1cncn1C.O=[N+]([O-])O,inactive: 1.4
16,CCOC(=O)C1=C[C@]2(CC)CCCN3CCc4c(n1c1ccccc41)[C@@H]32 [Vinpocetine],inactive: 1.42
17,C[C@]12C=CC(=O)C=C1CC[C@@H]1C2=CC[C@]2(C)[C@@H](C(=O)CN3CCN(c4cc(N5CCCC5)nc(N5CCCC5)n4)CC3)CC[C@@H]12.O=C(O)/C=C\C(=O)O,inactive: 6.04
18,Cl.c1ccc2c(c1)CCCC2C1=NCCN1 (configuration not stated),inactive: 2.18
19,Cl.Cl.N=C(NCCCCCCNC(=N)NC(=N)Nc1ccc(Cl)cc1)NC(=N)Nc1ccc(Cl)cc1 [Chlorhexidine hydrochloride],active: -11.3
20,Cl.NC1(C(=O)O)CC1 [1-Aminocyclopropanecarboxylic acid hydrochloride],inactive: 2.38
21,CC[N+](CC)(CC(=O)Nc1c(C)cccc1C)Cc1ccccc1.O=C([O-])c1ccccc1,inactive: 1.64
22,CC(C)(CO)c1cc2cc(NC(=O)C3(c4ccc5c(c4)OC(F)(F)O5)CC3)c(F)cc2n1C[C@@H](O)CO,inactive: -0.726
23,CCOC(=O)c1ncn2c1CN(C)C(=O)c1cc(F)ccc1-2 [Flumazenil],inactive: 2.29
24,C=C1CCC(C2CC(=O)OC2=O)C(=O)CCC2C1CC2(C)C (configuration not stated),inactive: 2.63

# An excerpt of these results, as tab-separated lines.
row	Structure (SMILES)	cell-cell fusion (z-score)
15	CC[C@H]1C(=O)OC[C@@H]1Cc1cncn1C.O=[N+]([O-])O	inactive: 1.4
16	CCOC(=O)C1=C[C@]2(CC)CCCN3CCc4c(n1c1ccccc41)[C@@H]32 [Vinpocetine]	inactive: 1.42
17	C[C@]12C=CC(=O)C=C1CC[C@@H]1C2=CC[C@]2(C)[C@@H](C(=O)CN3CCN(c4cc(N5CCCC5)nc(N5CCCC5)n4)CC3)CC[C@@H]12.O=C(O)/C=C\C(=O)O	inactive: 6.04

# Further entries follow.

row,Structure (SMILES),cell-cell fusion (z-score)
1,COc1ccc2c(c1)OCC(Cc1ccc(OC)c(OC)c1)C2=O (configuration not stated),inactive: 2
2,NC(=O)NCCCC(N)C(=O)O (configuration not stated),inactive: 2.56
3,O=C(O)c1ccc(S(=O)(=O)N(Cl)Cl)cc1,inactive: 1.85
4,CC(=O)[C@@]1(O)CC[C@H]2[C@@H]3C[C@H](C)C4=CC(=O)C=C[C@]4(C)[C@@]3(F)[C@@H](O)C[C@@]21C [Fluoromethalone],inactive: 2.27
5,NS(=O)(=O)c1cc2c(cc1Cl)NC(CSCc1ccccc1)=NS2(=O)=O [Benzthiazide],inactive: 1.95
6,O=C1c2cccc(O)c2C(=O)c2c(O)cccc21,inactive: 0.577
7,N[C@@H](Cc1c[nH]cn1)C(=O)O [histidine],inactive: 0.996
8,Cn1nnnc1SCC1=C(C(=O)[O-])N2C(=O)[C@@H](NC(=O)[C@H](OC=O)c3ccccc3)[C@H]2SC1.[Na+] [Cefamandole nafate],inactive: 0.958
9,Oc1cc(Cl)ccc1Oc1ccc(Cl)cc1Cl [Triclosan],inactive: -0.652
10,"NCCCCCCCCCCN [1,10-Diaminodecane]",inactive: 2.56
11,C#Cc1cccc(Nc2ncnc3cc4c(cc23)OCCOCCOCCO4)c1 [Icotinib],inactive: -2.11
12,Clc1ccc2c(c1)N=C(N1CCNCC1)c1ccccc1N2 [N-Desmethylclozapine],inactive: -2.63
13,C[C@H]1C(=O)CCC2[C@]3(C)CC[C@@]4(C)C5CC(C)(C)CC[C@]5(C)CC[C@]4(C)C3CC[C@@]21C (some centres not stated),inactive: 2.32
14,COc1cc(C)c(/C=C/C(C)=C/C=C/C(C)=C/C(=O)O)c(C)c1C [Acitretin],inactive: 2.06
15,OC(Cn1cncn1)(Cn1cncn1)c1ccc(F)cc1F,inactive: 2.36
16,COC(=O)C1=C(C)NC(C)=C(C(=O)OC(C)C)C1c1cccc2nonc12 (configuration not stated),inactive: 1.65
17,"CC1(C)OC(=O)NC1=O [5,5-Dimethyloxazolidine-2,4-dione]",inactive: 1.67
18,CC1(C)OC(=O)NC1=O,inactive: 1.82
19,C=CCN1C[C@@H](C)N([C@H](c2ccc(C(=O)N(CC)CC)cc2)c2cccc(OC)c2)C[C@@H]1C,inactive: 3.01
20,C=CCC1(C(C)CCC)C(=O)N=C([S-])NC1=O.[Na+] (configuration not stated),inactive: 0.372
21,Oc1ccc(Cl)c2c1CCC2,inactive: -0.146
22,CCOC(=O)C(C)Oc1cccc2c(=O)n(CC(=O)Nc3ccc4c(c3)OCCO4)ccc12 (configuration not stated),inactive: 1.13
23,"CC1(C)C(=O)N(CCN2CCC(C(=O)c3ccc(F)cc3)CC2)c2ccccc21.Cl [LY-310,762 hydrochloride]",inactive: 3.55
24,COc1c(C)c2c(c(O)c1C/C=C(\C)CCC(=O)OCCN1CCOCC1)C(=O)OC2 [Mycophenolate mofetil (CellCept)],inactive: 1.33

row,Structure (SMILES),cell-cell fusion (z-score)
1,CCc1ccc(/C=C2/SC(=S)NC2=O)cc1 [listing 2 of 2 here],inactive: 0.918
2,CC(/C=C/C(=O)NO)=C\[C@@H](C)C(=O)c1ccc(N(C)C)cc1 [Trichostatin A (TSA)],inactive: 0.75
3,C[N+](C)(C)CCOC(=O)CCC(=O)OCC[N+](C)(C)C.[Cl-].[Cl-] [Succinylcholine chloride],inactive: 3.26
4,NS(=O)(=O)c1cc2c(cc1C(F)(F)F)NC(Cc1ccccc1)NS2(=O)=O (configuration not stated),inactive: 3.39
5,O=[N+]([O-])c1ccc(CSc2ncnc3c2ncn3[C@@H]2O[C@H](CO)[C@H](O)C2O)cc1 (stereo partly drawn) [S-(4-Nitrobenzyl)-6-thioinosine],inactive: 1.79
6,C[C@]12CC[C@H](O)CC1=CCC1C2CC[C@]2(C)C(=O)CC[C@@H]12 (some centres not stated),inactive: 2.22
7,O=C(CCBr)N1CCN(C(=O)CCBr)CC1 [Pipobroman],inactive: 2.38
8,O=C(CCBr)N1CCN(C(=O)CCBr)CC1,inactive: 2.6
9,Cc1c(N(C)CS(=O)(=O)[O-])c(=O)n(-c2ccccc2)n1C.[Na+],inactive: 2.67
10,Cl.Cn1c(CCCC(=O)O)nc2cc(N(CCCl)CCCl)ccc21 [Bendamustine hydrochloride],inactive: 3.13
11,Nc1nnc(-c2cccc(Cl)c2Cl)c(N)n1,inactive: 2.07
12,COc1ccc(O)c(C(C)(C)C)c1,inactive: 3.46
13,Cl.Nc1c2c(nc3ccccc13)CCCC2,inactive: 2.89
14,CCN(CC)c1ncnc2c1ncn2[C@@H]1O[C@H](COP(=O)([O-])OP(=O)([O-])C(Br)(Br)P(=O)([O-])O)[C@@H](O)[C@H]1O.[Na+].[Na+].[Na+],inactive: 0.774
15,Nc1ccc(S(=O)(=O)Nc2ccnn2-c2ccccc2)cc1 [Sulfaphenazole],inactive: 1.25
16,CO[C@H]1/C=C/O[C@@]2(C)Oc3c(C)c(O)c4c(c3C2=O)C2=NC3(CCN(CC(C)C)CC3)NC2=C(NC(=O)/C(C)=C\C=C\[C@H](C)[C@H](O)[C@@H](C)[C@@H](O)[C@@H](C)[C@H](OC(C)=O)[C@@H]1C)C4=O [Rifabutin],inactive: 5.03
17,NS(=O)(=O)c1cc2c(cc1Cl)NC=NS2(=O)=O [Chlorothiazide],inactive: 1.5
18,CCOP(=S)(OCC)Oc1ccc2c(C)c(Cl)c(=O)oc2c1,inactive: 3.21
19,COc1ccc2nc([S@@](=O)Cc3ncc(C)c(OC)c3C)[n-]c2c1.[Na+] [Esomeprazole Sodium],inactive: 0.616
20,Cl.Nc1ccn(C2O[C@H](CO)[C@@H](O)C2(F)F)c(=O)n1 (some centres not stated) [Gemcitabine hydrochloride],inactive: 1.4
21,Nc1ccc(C(=O)Oc2ccccc2)c(O)c1,inactive: 1.34
22,CC(C)CCCC(C)[C@H]1CCC2C3CC=C4C[C@@H](O)CC[C@]4(C)C3CC[C@@]21C (some centres not stated),inactive: 1.96
23,CCC(=O)OC(OP(=O)(CCCCc1ccccc1)CC(=O)N1C[C@H](C2CCCCC2)C[C@H]1C(=O)[O-])C(C)C.[Na+] (some centres not stated) [Fosinopril sodium],inactive: 2.56
24,CC(C)OC(=O)[C@H](C)N[P@](=O)(CO[C@H](C)Cn1cnc2c(N)ncnc21)Oc1ccccc1.CC(C)OC(=O)[C@H](C)N[P@](=O)(CO[C@H](C)Cn1cnc2c(N)ncnc21)Oc1ccccc1.O=C(O)/C=C/C(=O)O [Tenofovir alafenamide fumarate],inactive: -0.234
